The record followed here is article PMC2522278.

The data set concerns the target T1, PUM1-HD-TAP (Homo sapiens) (UniProt Q14671).
T1 sequence (looked up): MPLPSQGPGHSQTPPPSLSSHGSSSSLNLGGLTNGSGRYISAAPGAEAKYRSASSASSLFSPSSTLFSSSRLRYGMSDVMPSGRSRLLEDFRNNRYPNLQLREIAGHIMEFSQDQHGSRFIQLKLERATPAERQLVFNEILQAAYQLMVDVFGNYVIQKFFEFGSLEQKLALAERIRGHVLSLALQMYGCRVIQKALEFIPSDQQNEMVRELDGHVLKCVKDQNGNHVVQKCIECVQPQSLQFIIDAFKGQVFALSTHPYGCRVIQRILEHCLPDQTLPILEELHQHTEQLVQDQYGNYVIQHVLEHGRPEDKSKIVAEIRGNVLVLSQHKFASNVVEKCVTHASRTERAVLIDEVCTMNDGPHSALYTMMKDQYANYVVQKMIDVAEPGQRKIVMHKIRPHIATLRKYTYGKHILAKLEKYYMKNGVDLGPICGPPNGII
Briefly: competition with a labelled probe. The following applies: 100-fold excess over biotinylated Dll1 3'-UTR; Biotinylated RNA plus HeLa S3 extract, streptavidin magnetic bead pull-down, anti-PAP immunoblot; protein in a lysate after overexpression; residues 746-1186; protein details: C-terminal TAP. A general note: In western blotting, separated proteins are transferred to a membrane and probed.

Results from cells or extracts need not show a direct contact. Negatives hold for the conditions tested. Where a protein sequence is shown, tags need not be part of it. The exact form of at least one protein or probe is not confirmed.

For “AUACAAAAUA [R2 control RNA (UGU to ACA)]”, the binding result is listed as “no binding”. In the case of AUUGUAAAUA [R1 competitor RNA] it was “binds”.
